Measured values as given in patent publication US20190055314A1.
No constants are given. Whether binding was seen depends on the method and setting. Some binding calls cover weakened binding; strength is not graded here.

Protein sequences, listed by entry. Tags and fused reporters are not part of them. Lines headed by an entry give the natural chain unless they say otherwise; changes in a name come on top. Residues count along the entry.
UniProt Q07011: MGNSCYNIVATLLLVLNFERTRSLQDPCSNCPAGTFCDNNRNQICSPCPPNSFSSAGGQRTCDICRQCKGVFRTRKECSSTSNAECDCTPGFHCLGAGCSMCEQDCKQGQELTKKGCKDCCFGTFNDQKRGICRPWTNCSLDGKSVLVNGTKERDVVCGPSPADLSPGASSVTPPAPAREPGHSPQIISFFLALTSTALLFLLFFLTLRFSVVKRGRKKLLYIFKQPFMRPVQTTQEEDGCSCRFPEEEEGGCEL
UniProt P41273, residues 71-254: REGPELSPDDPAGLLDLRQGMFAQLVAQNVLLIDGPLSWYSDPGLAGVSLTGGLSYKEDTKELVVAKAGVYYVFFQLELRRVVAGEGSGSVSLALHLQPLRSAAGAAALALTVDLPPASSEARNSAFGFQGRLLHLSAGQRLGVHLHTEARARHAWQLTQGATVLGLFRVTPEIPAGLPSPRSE
UniProt P41274, residues 104-309: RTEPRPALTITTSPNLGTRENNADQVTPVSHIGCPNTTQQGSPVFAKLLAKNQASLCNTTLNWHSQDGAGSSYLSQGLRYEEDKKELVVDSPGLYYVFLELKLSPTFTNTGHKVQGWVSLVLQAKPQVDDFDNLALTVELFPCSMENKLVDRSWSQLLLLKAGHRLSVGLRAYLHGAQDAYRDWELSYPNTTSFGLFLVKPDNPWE

Experiments:
Hu_Q59A (human) = Hu_Q59A (human) (UniProt Q07011); assay: flow cytometry, HEK293F
Hu_TN137AA (human) = Hu_TN137AA (human) (UniProt Q07011); assay: flow cytometry, HEK293F
Hu_EL111AA (human) = Hu_EL111AA (human) (UniProt Q07011); assay: flow cytometry, HEK293F
Hu_N30A (human) = Hu_N30A (human) (UniProt Q07011); assay: flow cytometry, HEK293F
Hu_FN125AA (human) [1] = target: Hu_FN125AA (human) (UniProt Q07011); assay: flow cytometry, HEK293F
Hu_R66A (human) = Hu_R66A (human) (UniProt Q07011); assay: flow cytometry, HEK293F
Hu_GT150AA (human) [2] = target: Hu_GT150AA (human) (UniProt Q07011); assay: flow cytometry, HEK293F
Hu_I64A (human) = Hu_I64A (human) (UniProt Q07011); assay: flow cytometry, HEK293F
Hu_L95A (human) = Hu_L95A (human) (UniProt Q07011); assay: flow cytometry, HEK293F
Hu_P50A (human) = Hu_P50A (human) (UniProt Q07011); assay: flow cytometry, HEK293F
Hu_F125A (human) = Hu_F125A (human) (UniProt Q07011); assay: flow cytometry, HEK293F
Hu_GQ109AA (human) = Hu_GQ109AA (human) (UniProt Q07011); assay: flow cytometry, HEK293F
Hu_PW135AA (human) [3] = target: Hu_PW135AA (human) (UniProt Q07011); assay: flow cytometry, HEK293F
[4] = target: full-length human CD137 on the cell surface (human) (UniProt Q07011); assay: flow cytometry, HEK293F
Hu_FN125AA (human) [5] = target: Hu_FN125AA (human) (UniProt Q07011); assay: flow cytometry, HEK293F cells expressing CD137 or mutant [Cont.]
Hu_GT150AA (human) [6] = target: Hu_GT150AA (human) (UniProt Q07011); assay: as above
Hu_PW135AA (human) [7] = target: Hu_PW135AA (human) (UniProt Q07011); assay: as above
[8] = target: full-length human CD137 on the cell surface (human) (UniProt Q07011); assay: as above
[9] = target: Hu_CRD1-CRD2-CRD3 (human) (UniProt Q07011); assay: flow cytometry, yeast display [Cont.]
[10] = target: full-length human CD137 on the cell surface (human) (UniProt Q07011); assay: flow cytometry
[11] = target: Hu_CRD1-CRD2-CRD3 (human) (UniProt Q07011); assay: flow cytometry, yeast display
[12] = target: T1, full-length mouse CD137 on the cell surface (mouse) (UniProt P20334); assay: flow cytometry, yeast display [Cont.]
T1 sequence: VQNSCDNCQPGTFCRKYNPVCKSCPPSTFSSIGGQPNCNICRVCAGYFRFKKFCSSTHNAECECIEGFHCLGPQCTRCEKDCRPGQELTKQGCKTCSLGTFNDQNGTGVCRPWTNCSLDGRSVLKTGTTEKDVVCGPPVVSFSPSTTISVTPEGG

[13] = target: T1, full-length mouse CD137 on the cell surface (mouse); assay: flow cytometry

Measured: binding

human CD137 ligand (from UniProt P41273 71-254)
binds: Hu_Q59A (human) | Hu_TN137AA (human) | Hu_EL111AA (human) | Hu_N30A (human) | Hu_FN125AA (human) [1] | Hu_R66A (human) | Hu_GT150AA (human) [2] | Hu_I64A (human) | Hu_L95A (human) | Hu_P50A (human) | Hu_F125A (human) | Hu_GQ109AA (human) | Hu_PW135AA (human) [3] | [4] | Hu_FN125AA (human) [5] | Hu_GT150AA (human) [6] | Hu_PW135AA (human) [7] | [8] | [9] | [10] | [11]

mouse CD137L (from UniProt P41274 104-309) (ligand)
binds: [12] | [13]
